Test results published in patent US10525115B2 (Immatics Biotechnologies GmbH, priority 2014, dated 2020).

Columns and labels:
Parameters in all cases: species or system human
primary AML samples [1] = assay: HLA class II ligandome analysis (LC-MS/MS) of primary AML samples; conditions: for Number of positive AMLs: HLA class II ligandome; for Number of positive AMLs / rep. frequency in AMLs: AML patients n=12
[2] = tested on: cancer tissues in comparison to non-cancerous tissues and organs; assay: Presentation profile / over-presentation by label-free LC-MS (XPRESIDENT), tumor versus normal tissues, other proliferative diseases; conditions: other proliferative diseases / organs (other than AML) that over- or exclusively present the peptide; Table 5
primary AML samples [3] = assay: HLA class I ligandome analysis (W6/32 immunoaffinity purification, LC-MS/MS) of primary AML samples; conditions: AML patients (n=15)
[4] = source protein level, HLA class II
[5] = HLA class I ligandome, count for the HLA ligand (LiTAP) or, on protein lines, for the source protein (LiTAA)

Substance	Number of positive AMLs (primary AML samples [1])	Proliferative disease and location thereof [2]	Number of positive AMLs (primary AML samples [3]; [5])	other results
516 (WGALATISTLEAVRG; listed as Homo sapiens) [compound 516]	2	lung, non-small cell lung carcinoma, liver, hepatocellular carcinoma		
586 (PEFDGKRFQNVAKE; listed as Homo sapiens) [compound 586]	2			
484 (DSNEFSVIADPRGNTLG; listed as Homo sapiens) [compound 484]	1	liver, hepatocellular carcinoma, cancer, thyroid; gland, nodular hyperplasia		
605 (RFEGQFSINKVPGNFH; listed as Homo sapiens) [compound 605]	2	kidney, clear cell renal cell carcinoma, prostate, adenocarcinoma		
483 (DSNEFSVIADPRGNTL; listed as Homo sapiens) [compound 483]	1	liver, hepatocellular carcinoma, cancer, thyroid; gland, nodular hyperplasia		
528 (LPIIDVAPLDVGAPD; listed as Homo sapiens) [compound 528]	1	pancreas, adenocarcinoma, chondrosarcoma		
596 (GNQLFRINEANQL; listed as Homo sapiens) [compound 596]	1	stomach, adenocarcinoma, prostate, adenocarcinoma		
466 (KTEEFEVTKTAVAHRPG; listed as Homo sapiens) [compound 466]	3	liver, hepatocellular carcinoma, cancer, lung, adenocarcinoma		
544 (TEGQFVDLTGNRLTYT; listed as Homo sapiens) [compound 544]	3	liver, hepatocellular carcinoma, cancer, liver, focal nodular hyperplasia		
HSP90B1 heat shock protein 90 kDa beta (Grp94), member 1: HLA class II ligandome-derived tumor-associated antigen (LiTAA), source protein of the peptides listed under it	4			rep. frequency in AMLs (primary AML samples [1]; [4]): 33.3%
574 (SPRDDGYSTKDSY; listed as Homo sapiens) [compound 574]	1			
585 (PEFDGKRFQNVAK; listed as Homo sapiens) [compound 585]	1			
461 (TVRRQAVDVSPLR; listed as Homo sapiens) [compound 461]	1			
602 (IGNIAVNHAPVSPRPG; listed as Homo sapiens) [compound 602]	1			
460 (RAGTVRRQAVDVSPLR; listed as Homo sapiens) [compound 460]	4			
COL1A1 collagen, type I, alpha 1: HLA class II ligandome-derived tumor-associated antigen (LiTAA), source protein of the peptides listed under it	3			rep. frequency in AMLs (primary AML samples [1]; [4]): 25.0%
573 (RDYGHSSSRDDYPS; listed as Homo sapiens) [compound 573]	1			
TPM4 tropomyosin 4: HLA class II ligandome-derived tumor-associated antigen (LiTAA), source protein of the peptides listed under it	3			rep. frequency in AMLs (primary AML samples [1]; [4]): 25.0%
IFI30 interferon, gamma-inducible protein 30: HLA class II ligandome-derived tumor-associated antigen (LiTAA), source protein of the peptides listed under it	3			rep. frequency in AMLs (primary AML samples [1]; [4]): 25.0%
601 (IGNIAVNHAPVSPRP; listed as Homo sapiens) [compound 601]	3			
599 (FIGNIAVNHAPVSPR; listed as Homo sapiens) [compound 599]	1			
587 (ALPEFDGKRFQNVAKEG; listed as Homo sapiens) [compound 587]	1			
600 (FIGNIAVNHAPVSPRPG; listed as Homo sapiens) [compound 600]	1			
YARS tyrosyl-tRNA synthetase: HLA class II ligandome-derived tumor-associated antigen (LiTAA), source protein of the peptides listed under it	3			rep. frequency in AMLs (primary AML samples [1]; [4]): 25.0%
545 (ALDFFGNGPPVNYK; listed as Homo sapiens) [compound 545]	1			
A1BG alpha-1-B glycoprotein: HLA class II ligandome-derived tumor-associated antigen (LiTAA), source protein of the peptides listed under it	6			identified on patients (positive/total) (primary AML samples [1]; HLA class II, source protein level): 6/12; rep. frequency in AMLs (primary AML samples [1]; [4]): 50%

Substance	Number of positive AMLs (primary AML samples [1])	Proliferative disease and location thereof [2]	Number of positive AMLs (primary AML samples [3]; [5])	other results
572 (GNSRSAPPTRGPPPSYGGSSRY; listed as Homo sapiens) [compound 572]	1			
489 (PEFDGKRFQNVAK; listed as Homo sapiens) [compound 489]	2			
488 (ALPEFDGKRFQNVAKEG; listed as Homo sapiens) [compound 488]	1			
CRP C-reactive protein, pentraxin-related: HLA class II ligandome-derived tumor-associated antigen (LiTAA), source protein of the peptides listed under it	3			rep. frequency in AMLs (primary AML samples [1]; [4]): 25.0%
571 (APPTRGPPPSYGGS; listed as Homo sapiens) [compound 571]	1			
HSPG2 heparan sulfate proteoglycan 2: HLA class II ligandome-derived tumor-associated antigen (LiTAA), source protein of the peptides listed under it	4			rep. frequency in AMLs (primary AML samples [1]; [4]): 33.3%
168 (FPRFVNVTV; listed as Homo sapiens) [compound 168]		spleen, chronic myeloid leukemia	1	
237 (EVSEQILHM; listed as Homo sapiens) [compound 237]		stomach, metastatic, lymph node, non-Hodgkin's; lymphoma	3	
42 (KEIDVISI; listed as Homo sapiens) [compound 42]		stomach, metastatic, adenocarcinoma	1	
188 (LLEQKVWEV; listed as Homo sapiens) [compound 188]		liver, hepatocellular carcinoma, cancer, liver, hepatocellular carcinoma	1	
36 (SLLYKVPYV; listed as Homo sapiens) [compound 36]		lung, non-small cell lung carcinoma, kidney, carcinoma	1	
107 (READFKETL; listed as Homo sapiens) [compound 107]		stomach, metastatic, duodenum, adenocarcinoma	2	
33 (EVVDVTWRY; listed as Homo sapiens) [compound 33]		colon or rectum, lymph node, non-Hodgkin's; lymphoma	4	
48 (LLDHAPPEI; listed as Homo sapiens) [compound 48]		stomach, adenocarcinoma, non-Hodgkin's; lymphoma, mycosis fungoides	3	
278 (RLQGELQAV; listed as Homo sapiens) [compound 278]		kidney, clear cell renal cell carcinoma, kidney, renal cell carcinoma		Number of positive AMLs (primary AML samples [3]; HLA ligand (LiTAP)): 3
21 (SIYDDSYLGY; listed as Homo sapiens) [compound 21]		malignant fibrous histiocytoma	1	
458 (AGTVRRQAVDVSPLR; listed as Homo sapiens) [compound 458]	5			
37 (AEIPLRMV; listed as Homo sapiens) [compound 37]		stomach, metastatic, adenocarcinoma	1	
99 (ASAAASGGLLK; listed as Homo sapiens) [compound 99]		colon or rectum, spleen, extramedullary; hematopoiesis	3	
190 (YLAIGIHEL; listed as Homo sapiens) [compound 190]		liver, hepatocellular carcinoma, cancer, liver, hepatocellular carcinoma	1	
112 (LLDPSVFHV; listed as Homo sapiens) [compound 112]		stomach, adenocarcinoma, testis, seminoma	3	
459 (IGRAGTVRRQAVDVSPLR; listed as Homo sapiens) [compound 459]	1			
82 (SESLPVRTL; listed as Homo sapiens) [compound 82]		colon or rectum, metastatic renal cell carcinoma	1	
111 (RIQGYVVSW; listed as Homo sapiens) [compound 111]		lung, non-small cell lung carcinoma, spleen, extramedullary hematopoiesis	1	
179 (VFTLKPLEF; listed as Homo sapiens) [compound 179]		kidney, clear cell renal cell carcinoma, non- Hodgkin's lymphoma	1	
